Reference: US20200362033A1
Results are given in words; binding and its absence hold for the method and conditions named. Some entries that bind do so weakly or less than the wild type.

Biological target: human CD147-Fc fusion protein (Sino Biological Inc., Cat. 10186-H02H) (human) (UniProt P35613)
Assay: ELISA, hybridoma supernatant on coated wells

binding: binds
B1: LN22R8 (antibody, V domains shown)
VH: QIQLVQSGPELKKPGETVKISCKASGYTFTNYGMNWVKQAPGKGLKWMGWINTYTGEPTYADDFKGRFAFSLETSASTAYLQINNLKNEDTATYFCARGGYGNYGAGAMDYWGQGTSVTVSS
VL: DIQMTQSPSSLSASLGERVSLTCRASLEISGFLSWLQQKPDGTIKRLIYAASILDSGVPKRFSGSRSGSDYSLTISSLESEDFADYYCLQYASYPWTFGGGTKLEIKR
